Assay results taken from US4455290A, “Inhibition of fibrin polymerization by a peptide isolated from fibrin Fragment D1” (Research Corporation, priority 1981, dated 1984).
At least one structure is not confirmed: it was looked up by name or label, or the drawing left a doubt. Peptide text beside a SMILES is read from it.

Molecular target: T1, thrombin-treated NH2-terminal disulfide knot (NDSK) (Homo sapiens, UniProt P02671+P02675+P02679)
T1 sequence (P02671 36-70 limits assumed): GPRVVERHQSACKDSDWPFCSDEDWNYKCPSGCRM
T1 sequence (P02675 45-148 limits assumed): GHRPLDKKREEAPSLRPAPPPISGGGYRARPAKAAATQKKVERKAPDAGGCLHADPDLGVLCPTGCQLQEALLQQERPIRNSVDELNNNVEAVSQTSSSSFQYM
T1 sequence (P02679 27-453): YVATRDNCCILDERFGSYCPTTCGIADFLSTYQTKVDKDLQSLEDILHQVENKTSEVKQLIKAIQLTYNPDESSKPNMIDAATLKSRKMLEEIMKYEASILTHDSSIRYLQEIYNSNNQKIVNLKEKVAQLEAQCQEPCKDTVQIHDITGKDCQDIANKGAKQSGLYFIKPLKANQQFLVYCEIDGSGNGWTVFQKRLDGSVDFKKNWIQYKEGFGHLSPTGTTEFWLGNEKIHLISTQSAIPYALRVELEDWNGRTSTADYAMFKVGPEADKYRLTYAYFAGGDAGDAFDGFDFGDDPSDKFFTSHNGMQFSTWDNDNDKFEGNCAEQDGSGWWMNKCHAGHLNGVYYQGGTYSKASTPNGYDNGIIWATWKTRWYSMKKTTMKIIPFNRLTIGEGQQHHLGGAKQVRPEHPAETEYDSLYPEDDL
Experiment: Equilibrium binding of 125-I D1 Peptide (equilibrium dialysis / Sephadex gel equilibrium), thrombin-treated NDSK

CC[C@H](C)[C@H](NC(=O)[C@H](CCCCN)NC(=O)[C@H](CCSC)NC(=O)[C@@H](NC(=O)[C@@H](NC(=O)[C@H](CCCCN)NC(=O)[C@H](CCCCN)NC(=O)[C@H](CCSC)NC(=O)[C@H](CO)NC(=O)[C@H](Cc1ccc(O)cc1)NC(=O)[C@H](Cc1c[nH]c2ccccc12)NC(=O)[C@H](CCCNC(=N)N)NC(=O)[C@@H](N)[C@@H](C)O)[C@@H](C)O)[C@@H](C)O)C(=O)N[C@H](C(=O)N1CCC[C@H]1C(=O)N[C@@H](Cc1ccccc1)C(=O)N[C@@H](CC(N)=O)C(=O)N[C@@H](CCCNC(=N)N)C(=O)N[C@@H](CC(C)C)C(=O)N[C@H](C(=O)N[C@H](C(=O)NCC(=O)N[C@@H](CCC(=O)O)C(=O)NCC(=O)N[C@@H](CCC(N)=O)C(=O)N[C@@H](CCC(N)=O)C(=O)N[C@@H](Cc1c[nH]cn1)C(=O)N[C@@H](Cc1c[nH]cn1)C(=O)N[C@@H](CC(C)C)C(=O)NCC(=O)NCC(=O)N[C@@H](C)C(=O)N[C@@H](CCCCN)C(=O)N[C@@H](CCC(N)=O)C(=O)N[C@@H](C)C(=O)NCC(=O)N[C@@H](CC(=O)O)C(=O)N[C@H](C(=O)O)C(C)C)[C@@H](C)CC)[C@@H](C)O)[C@@H](C)CC [D1 Peptide] (H-TRWYSMKKTTMKIIPFNRLTIGEGQQHHLGGAKQAGDV-OH)
Kd (Scatchard analysis (FIG. 6)): 1450 nM
Kd (plot of 1/free ligand vs. total NDSK/bound protein): 1600 nM
